# Results published in article PMC3093395.
# Results are given in words; binding and its absence hold for the method and conditions named. In cells and extracts the contact can be indirect. Some entries that bind do so weakly or less than the wild type. For some assays here: Tags and fused reporters may be left off the sequences shown.
# T1: Nanog-LAP (mouse (BAC transgene in mouse R1/E ESC)) (UniProt Q80Z64)
# T1 sequence: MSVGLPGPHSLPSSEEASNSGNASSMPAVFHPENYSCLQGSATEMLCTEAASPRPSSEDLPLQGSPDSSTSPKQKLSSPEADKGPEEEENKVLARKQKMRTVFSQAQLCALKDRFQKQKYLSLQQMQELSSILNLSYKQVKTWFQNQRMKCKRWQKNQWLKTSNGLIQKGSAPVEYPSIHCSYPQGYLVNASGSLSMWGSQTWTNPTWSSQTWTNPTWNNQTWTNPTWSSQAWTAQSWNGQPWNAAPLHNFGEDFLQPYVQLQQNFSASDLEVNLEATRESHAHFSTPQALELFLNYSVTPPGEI
# T2: RAD21-LAP (mouse (BAC transgene in mouse R1/E ESC)) (UniProt Q61550)
# T2 sequence: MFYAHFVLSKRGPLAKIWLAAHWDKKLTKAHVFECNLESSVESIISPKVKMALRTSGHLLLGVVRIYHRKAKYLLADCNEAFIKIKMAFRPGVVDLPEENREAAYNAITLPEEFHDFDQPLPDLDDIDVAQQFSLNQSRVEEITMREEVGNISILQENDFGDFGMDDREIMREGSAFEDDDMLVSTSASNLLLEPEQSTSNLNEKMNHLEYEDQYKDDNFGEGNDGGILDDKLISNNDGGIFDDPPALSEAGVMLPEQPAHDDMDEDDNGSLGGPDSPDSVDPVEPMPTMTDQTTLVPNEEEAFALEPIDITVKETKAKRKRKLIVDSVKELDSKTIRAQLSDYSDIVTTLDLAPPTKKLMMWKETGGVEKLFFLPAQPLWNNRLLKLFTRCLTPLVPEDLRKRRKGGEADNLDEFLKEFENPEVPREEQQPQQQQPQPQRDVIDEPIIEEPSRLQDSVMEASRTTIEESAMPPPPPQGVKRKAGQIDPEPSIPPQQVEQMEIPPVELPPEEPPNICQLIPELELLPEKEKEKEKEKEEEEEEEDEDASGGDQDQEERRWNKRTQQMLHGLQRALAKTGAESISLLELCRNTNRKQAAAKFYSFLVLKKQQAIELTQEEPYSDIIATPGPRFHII
# B1: STAG1 (protein, UniProt Q9D3E6 1-1258)
# chain: MITSELPVLQDSTNETTAHSDAGSELEETEVKGKRKRGRPGRPPSTNKKPRKSPGEKSRIEAGIRGAGRGRANGHPQQNGDGDPVTLFEVVKLGKSAMQSVVDDWIELYKQDRDIALLDLINFFIQCSGCRGTVRIEMFRNMQNAEIIRKMTEEFDEDSGDYPLTMPGPQWKKFRSNFCEFIGVLIRQCQYSIIYDEYMMDTVISLLTGLSDSQVRAFRHTSTLAAMKLMTALVNVALNLSIHQDNTQRQYEAERNKMIGKRANERLELLLQKRKELQENQDEIENMMNSIFKGIFVHRYRDAIAEIRAICIEEIGVWMKMYSDAFLNDSYLKYVGWTLHDRQGEVRLKCLKALQSLYTNRELFPKLELFTNRFKDRIVSMTLDKEYDVAVEAIRLVTLILHGSEEALSNEDCENVYHLVYSAHRPVAVAAGEFLHKKLFSRHDPQAEEALAKRRGRNSPNGNLIRMLVLFFLESELHEHAAYLVDSLWESSQELLKDWECMTELLLEEPVQGEEAMSDRQESALIELMVCTIRQAAEAHPPVGRGTGKRVLTAKERKTQIDDRNKLTEHFIITLPMLLSKYSADAEKVANLLQIPQYFDLEIYSTGRMEKHLDALLKQIKFVVEKHVESDVLEACSKTYSILCSEEYTIQNRVDIARSQLIDEFVDRFNHSVEDLLQEGEEADDDDIYNVLSTLKRLTSFHNAHDLTKWDLFGNCYRLLKTGIEHGAMPEQIVVQALQCSHYSILWQLVKITDGSPSKEDLLVLRKTVKSFLAVCQQCLSNVNTPVKEQAFMLLCDLLMIFSHQLMTGGREGLQPLVFNPDTGLQSELLSFVMDHVFIDQDEENQSMEGDEEDEANKIEALHKRRNLLAAFSKLIIYDIVDMHAAADIFKHYMKYYNDYGDIIKETLSKTRQIDKIQCAKTLILSLQQLFNELVQEQGPNLDRTSAHVSGIKELARRFALTFGLDQIKTREAVATLHKDGIEFAFKYQNQKGQEYPPPNLAFLEVLSEFSSKLLRQDKKTVHSYLEKFLTEQMMERREDVWLPLISYRNSLVTGGEDDRMSVNSGSSSSKTSSVRSKKGRPPLHRKRVEDESLDNTWLNRTDTMIQTPGPLPTPQLTSTVLRENSRPMGEQIQEPESEHGSEPDFLHNPQMQISWLGQPKLEDLNRKDRTGMNYMKVRAGVRHAVRGLMEEDAEPIFEDVMMSSRSQLEDMNEEFEDTMVIDLPPSRNRRERAELRPDFFDSAAIIEDDSGFGMPMF
# B2: SMC1a (protein, UniProt Q9CU62 1-1233)
# chain: MGFLKLIEIENFKSYKGRQIIGPFQRFTAIIGPNGSGKSNLMDAISFVLGEKTSNLRVKTLRDLIHGAPVGKPAANRAFVSMVYSEEGAEDRTFARVIVGGSSEYKINNKVVQLHEYSEELEKLGILIKARNFLVFQGAVESIAMKNPKERTALFEEISRSGELAQEYDKRKKEMVKAEEDTQFNYHRKKNIAAERKEAKQEKEEADRYQRLKDEVVRAQVQLQLFKLYHNEVEIEKLNKELASKNKEIEKDKKRMDKVEDELKEKKKELGKMMREQQQIEKEIKEKDSELNQKRPQYIKAKENTSHKIKKLEAAKKSLQNAQKHYKKRKGDMDELEKEMLSVEKARQEFEERMEEESQSQGRDLTLEENQVKKYHRLKEEASKRAATLAQELEKFNRDQKADQDRLDLEERKKVETEAKIKQKLREIEENQKRIEKLEEYITTSKQSLEEQKKLEGELTEEVEMAKRRIDEINKELNQVMEQLGDARIDRQESSRQQRKAEIMESIKRLYPGSVYGRLIDLCQPTQKKYQIAVTKVLGKNMDAIIVDSEKTGRDCIQYIKEQRGEPETFLPLDYLEVKPTDEKLRELKGAKLVIDVIRYEPPHIKKALQYACGNALVCDNVEDARRIAFGGHQRHKTVALDGTLFQKSGVISGGASDLKAKARRWDEKAVDKLKEKKERLTEELKEQMKAKRKEAELRQVQSQAHGLQMRLKYSQSDLEQTKTRHLALNLQEKSKLESELANFGPRINDIKRIIQSREREMKDLKEKMNQVEDEVFEEFCREIGVRNIREFEEEKVKRQNEIAKKRLEFENQKTRLGIQLDFEKNQLKEDQDKVHMWEQTVKKDENEIEKLKKEEQRHMKIIDETMAQLQDLKNQHLAKKSEVNDKNHEMEEIRKKLGGANKEMTHLQKEVTAIETKLEQKRSDRHNLLQACKMQDIKLPLSKGTMDDISQEEGSSQGEESVSGSQRTSSIYAREALIEIDYGDLCEDLKDAQAEEEIKQEMNTLQQKLNEQQSVLQRIAAPNMKAMEKLESVRDKFQETSDEFEAARKRAKKAKQAFEQIKKERFDRFNACFESVATNIDEIYKALSRNSSAQAFLGPENPEEPYLDGINYNCVAPGKRFRPMDNLSGGEKTVAALALLFAIHSYKPAPFFVLDEIDAALDNTNIGKVANYIKEQSTCNFQAIVISLKEEFYTKAESLIGVYPEQGDCVISKVLTFDLTKYPDANPNPNEQ
# How the values were obtained:
# [1] = biological target: T1, Nanog-LAP (mouse (BAC transgene in mouse R1/E ESC)); experiment: co-IP; nuclear extracts of Nanog-LAP ESC or wildtype ESC precipitated with a GFP antibody, IgG isotype control; Western blot with GFP and STAG1 antibodies
# [2] = biological target: T2, RAD21-LAP (mouse (BAC transgene in mouse R1/E ESC)); experiment: co-IP; RAD21-LAP immunoprecipitation from RAD21 BAC-GFP ESC with a GFP antibody; Western blot
Binder,binding [1],binding [2]
B1,binds,
B2,,binds
